System: L-929 cells (ATCC CCL-1)
Test: Minimal Essential Media (MEM) Elution cytotoxicity test
Type: cell-based
Details: Table 9A
Protocol: Summary: The Minimal Essential Media (MEM) Elution test was designed to determine the cytotoxicity of extractable substances. The test article was added to cell monolayers and incubated. The cell monolayers were examined and scored based on the degree of cellular destruction.
Acceptance Criteria: The United States Pharmacopeia & National Formulary (USP <87>) states that the test article meets the requirements, or receives a passing score (Pass) if the reactivity grade is not greater than grade 2 or a mild reactivity.
Acceptance criteria were based upon the negative and media controls receiving “0” reactivity grades and positive controls receiving a 3-4 reactivity grades (moderate to severe).
The cell monolayers were examined microscopically. The wells were scored as to the degree of discernable morphological cytotoxicity on a relative scale of 0 to 4:
The results from the three wells were averaged to give a final cytotoxicity score.
[…] This initial concentration was then diluted 1: 2, 1:4, 1:8, and 1:16. Multiple well cell culture plates were seeded with a verified quantity of industry standard L-929 cells (ATCC CCL-1) and incubated until approximately 80% confluent. The test articles and control extracts were added to the cell monolayers in triplicate. The cells were incubated at 37±1° C. with 5±1% CO2 for 48±3 hours.

Compound: CC(C)(C)CC(C)(C)c1ccc(OCCOCC[N+](C)(C)Cc2ccccc2)cc1 [benzethonium chloride, reference compound]
- Results Pass/Fail (3.125 μg/mL): Fail (a numerical grade greater than 2 is considered a cytotoxic effect, or a failing score (Fail))
- Results Pass/Fail (6.25 μg/mL): Fail (a numerical grade greater than 2 is considered a cytotoxic effect, or a failing score (Fail))
- Results Pass/Fail (12.5 μg/mL): Fail (a numerical grade greater than 2 is considered a cytotoxic effect, or a failing score (Fail))
- Results Pass/Fail (25 μg/mL): Fail (a numerical grade greater than 2 is considered a cytotoxic effect, or a failing score (Fail))
- Results Pass/Fail (1.563 (unit not given)): Fail (a numerical grade greater than 2 is considered a cytotoxic effect, or a failing score (Fail))

— patent US10440955B2, “Methods comprising a biocidal polyamine” (Curza Global, LLC, priority 2013, dated 2019)
